Test: Photovoltaic conversion of dye-sensitized cells under AM 1.5 illumination
Settings: for fill factor / light/electricity conversion efficiency / photocurrent / photovoltage: AM 1.5, 100 mW/cm^2, electrolyte salt 1 mol/l

| SMILES | fill factor [%] | light/electricity conversion efficiency [%] | photocurrent [mA/cm^2] | photovoltage [mV] | gain in current versus DMII (replacement of DMII by 3a) |
| --- | --- | --- | --- | --- | --- |
| Cn1cc[n+](C)c1.[I-] [DMII, 1,3-Dimethylimidazolium iodide, reference compound] | 69.3 | 8.0 | 16.9 | 680 | – |
| COC(=O)CCc1cn(C)c[n+]1C.[I-] [Compound 3a, 4-(3-methoxy-3-oxopropyl)-1,3-dimethyl-1H-imidazol-3-ium Iodide] | 67 | 8.5 | 19.5 | 647 | more than 15% |
